Experimental data: PubChem BioAssay AID212 (DTP/NCI, 2004)
The list is a part of this screen's results and no random one: it gathers tests that were run many times, whatever their T/C, doses with no T/C, and many T/C values between a quarter and a half above the control. Further doses and runs are listed elsewhere. T/C is the treated group as % of the vehicle group. Schedule codes are those of the source, taken here to give the interval after Q, in days (D) or hours (H), and the number of doses after X. Some T/C values carry the count of animals alive at the toxicity check (mostly the fifth day); without a count, all were alive then. Some doses were run more than once; their values stand side by side, smallest first. Signs of the kind (2×) stand for listed records that agree. Some doses have a count of surviving animals in place of a T/C: the source files T/C as zero there, which appears to mark a toxic dose or a test without result, not a measured value. Counts of survivors are from the toxicity check (mostly the fifth day) where no day follows; animals may have died later.

Tested on: BDF1 mice, colon carcinoma 38 sc, T/C %
Assay: NCI In Vivo Anticancer Drug Screen. Data for tumor model Colon Carcinoma 38 (subcutaneous) in B6D2F1 (BDF1) mice
Conditions: for T/C: evaluated on day 20
In short: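 Ratio of survival or tumor size, compound-treated animals relative to vehicle controls, in tumor-bearing mice.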

[1] = T/C endpoint: median tumor weight (est.), dose: 100.0 mg/kg/injection, schedule: Q07DX002 (ip), vehicle: Klucel (hydroxypropylcellulose) (HPC), higher T/C = larger tumour
[2] = T/C endpoint: median tumor weight (est.), dose: 200.0 mg/kg/injection, schedule: Q07DX002 (ip), vehicle: Klucel (hydroxypropylcellulose) (HPC), higher T/C = larger tumour
[3] = T/C endpoint: median tumor weight (est.), dose: 400.0 mg/kg/injection, schedule: Q07DX002 (ip), vehicle: Klucel (hydroxypropylcellulose) (HPC), higher T/C = larger tumour
[4] = T/C endpoint: median tumor weight (est.), dose: 800.0 mg/kg/injection, schedule: Q07DX002 (ip), vehicle: Klucel (hydroxypropylcellulose) (HPC), higher T/C = larger tumour
[5] = T/C endpoint: median tumor weight (est.), dose: 50.0 mg/kg/injection, schedule: Q07DX002 (ip), vehicle: saline with Tween-80, higher T/C = larger tumour
[6] = T/C endpoint: median tumor weight (est.), dose: 800.0 mg/kg/injection, schedule: Q07DX002 (ip), vehicle: saline with Tween-80, higher T/C = larger tumour
[7] = T/C endpoint: median tumor weight (est.), dose: 200.0 mg/kg/injection, schedule: Q07DX002 (ip), vehicle: saline with Tween-80, higher T/C = larger tumour
[8] = T/C endpoint: median tumor weight (est.), dose: 400.0 mg/kg/injection, schedule: Q07DX002 (ip), vehicle: saline with Tween-80, higher T/C = larger tumour
[9] = T/C endpoint: median tumor weight (est.), dose: 25.0 mg/kg/injection, schedule: Q07DX002 (ip), vehicle: Klucel (hydroxypropylcellulose) (HPC), higher T/C = larger tumour
[10] = T/C endpoint: median tumor weight (est.), dose: 25.0 mg/kg/injection, schedule: Q07DX002 (ip), vehicle: saline, higher T/C = larger tumour
[11] = T/C endpoint: median tumor weight (est.), dose: 100.0 mg/kg/injection, schedule: Q07DX002 (ip), vehicle: saline, higher T/C = larger tumour
[12] = T/C endpoint: median tumor weight (est.), dose: 400.0 mg/kg/injection, schedule: Q07DX002 (ip), vehicle: saline, higher T/C = larger tumour
[13] = T/C endpoint: median tumor weight (est.), dose: 800.0 mg/kg/injection, schedule: Q07DX002 (ip), vehicle: saline, higher T/C = larger tumour

For `OC(CBr)C(O)C(O)C(O)CBr` (stereo unspecified), the T/C (T/C endpoint: median tumor weight (est.), dose: 50.0 mg/kg/injection, schedule: Q07DX003 (ip), vehicle: saline with Tween-80, higher T/C = larger tumour) was 132 % of control, the T/C [1] was 48, 51, 72, 79, 88, 91, 94, 98, 99, 117 % of control and the T/C (T/C endpoint: median tumor weight (est.), dose: 100.0 mg/kg/injection, schedule: Q07DX003 (ip), vehicle: saline with Tween-80, higher T/C = larger tumour) was 133 % of control. For the same compound, the T/C [2] was 25, 27, 39, 53, 59, 81 (2×), 84, 97 % of control (2×), the T/C [3] was 4 [8 of 10 alive on day 20], 5, 18 [8 of 10 alive on day 20], 24, 32, 48, 51, 59, 75 % of control and the survivor count [3] was 3 of 10 on day 20. For the same compound, the survivor count [4] was 0 of 10 on day 20, 1 of 10 on day 20, 2 of 10 on day 20, 3 of 10 on day 20, 5 of 10 on day 20, 6 of 10 on day 20.

`C(=N/NC1=NCCN1)/c1c2ccccc2c(/C=N\NC2=NCCN2)c2ccccc12` was tested, and the T/C (T/C endpoint: median tumor weight (est.), dose: 2.5 mg/kg/injection, schedule: Q07DX002 (ip), vehicle: suspension in saline, higher T/C = larger tumour) was 131 % of control [9 of 10 alive on day 20] and the survivor count (T/C endpoint: median tumor weight (est.), dose: 80.0 mg/kg/injection, schedule: Q07DX002 (ip), vehicle: suspension in saline, higher T/C = larger tumour) was 0 of 10 on day 20.

For `CCOC(=O)c1ccc(NN=NCCF)cc1`, the survivor count [5] was 2 of 10 on day 20.

In the case of `C=CC(C)NC(=S)NNC(=S)NC` (stereo unspecified), the survivor count (T/C endpoint: median tumor weight (est.), dose: 800.0 mg/kg/injection, schedule: Q07DX002 (ip), vehicle: saline + alcohol, higher T/C = larger tumour) is reported as 6 of 10 on day 20.

For `CNc1cccnc1/C=N/NC(N)=S`, the T/C [5] was 138 % of control and the survivor count [6] was 1 of 10 on day 20.

`O=C1NCC(Br)C(=O)N1` (stereo unspecified) was tested, and the T/C (T/C endpoint: median tumor weight (est.), dose: 12.5 mg/kg/injection, schedule: Q07DX002 (ip), vehicle: saline with Tween-80, higher T/C = larger tumour) was 142 % of control, the T/C (T/C endpoint: median tumor weight (est.), dose: 25.0 mg/kg/injection, schedule: Q07DX002 (ip), vehicle: saline with Tween-80, higher T/C = larger tumour) was 136 % of control and the T/C [5] was 145 % of control. For the same compound, the T/C [7] was 133 % of control and the T/C [8] was 134 % of control [8 of 10 alive on day 20].

`NC(=O)c1ccc[n+](Cc2c(Cl)cccc2Cl)c1` was tested, and the T/C (T/C endpoint: median tumor weight (est.), dose: 6.25 mg/kg/injection, schedule: Q07DX002 (ip), vehicle: saline, higher T/C = larger tumour) was 134 % of control.

For `C[PH+](C)C.C[PH+](C)C.[Au]`, the survivor count (T/C endpoint: median tumor weight (est.), dose: 20.0 mg/kg/injection, schedule: Q07DX002 (ip), vehicle: saline, higher T/C = larger tumour) was 6 of 10 on day 20 and the survivor count (T/C endpoint: median tumor weight (est.), dose: 40.0 mg/kg/injection, schedule: Q07DX002 (ip), vehicle: saline, higher T/C = larger tumour) was 0 of 10 on day 20.

In the case of `O=[N+]([O-])c1ccc(Sc2ccncn2)c([N+](=O)[O-])c1`, the survivor count [7] is reported as 4 of 10 on day 20 and 5 of 10 on day 20 and the survivor count [8] is reported as 0 of 10 on day 20.

With `CCCCCC(O)C1C(=O)OC(C)C(O)/C=C/C=C/C=C/C=C/C=C(\C)C(O)C(O)C(O)CC(O)CC(O)CC(O)CC(O)CC1O` (stereo unspecified) the T/C (T/C endpoint: median tumor weight (est.), dose: 2.0 mg/kg/injection, schedule: Q07DX002 (ip), vehicle: saline, higher T/C = larger tumour) was 125 % of control.

`Oc1c(Cl)cc(C(c2cc(Cl)c(O)c(Cl)c2)C(c2cc(Cl)c(O)c(Cl)c2)c2cc(Cl)c(O)c(Cl)c2)cc1Cl` was tested, and the T/C [9] was 128 % of control and the T/C (T/C endpoint: median tumor weight (est.), dose: 50.0 mg/kg/injection, schedule: Q07DX002 (ip), vehicle: Klucel (hydroxypropylcellulose) (HPC), higher T/C = larger tumour) was 127 % of control [9 of 10 alive on day 20].

In the case of `CCCCCc1cc(/C=C2/N=C(c3ccc[nH]3)C=C2OC)[nH]c1C`, the T/C (T/C endpoint: median tumor weight (est.), dose: 1.0 mg/kg/injection, schedule: Q07DX002 (ip), vehicle: saline with Tween-80, higher T/C = larger tumour) is reported as 126 % of control.

With `CN(N=O)C(=O)N[C@@H](C=O)[C@@H](O)[C@H](O)[C@H](O)CO` the survivor count (T/C endpoint: median survival time, dose: 97.0 mg/kg/injection, schedule: Q01DX010 (sc), vehicle: other, higher T/C = longer survival) was 4 of 10 on day 95.

`COc1cccc2c1C(=O)c1c(O)c3c(c(O)c1C2=O)C[C@@](O)(C(=O)CO)C[C@@H]3OC1CC(OC(C)=O)C(OC(C)=O)C(C)O1` (stereo partly specified) was tested, and the survivor count (T/C endpoint: median tumor weight (est.), dose: 100.0 mg/kg/injection, schedule: Q07DX002 (ip), vehicle: distilled water + Tween-80, higher T/C = larger tumour) was 5 of 10 on day 20.

`CCCCCCCC(=O)OCC(=O)[C@]1(O)Cc2c(O)c3c(c(O)c2[C@@H](OC2CC(N)C(O)C(C)O2)C1)C(=O)c1c(OC)cccc1C3=O` (stereo partly specified) was tested, and the survivor count (T/C endpoint: median tumor weight (est.), dose: 16.0 mg/kg/injection, schedule: Q07DX002 (ip), vehicle: suspension in saline, higher T/C = larger tumour) was 6 of 10 on day 20 and the survivor count (T/C endpoint: median tumor weight (est.), dose: 32.0 mg/kg/injection, schedule: Q07DX002 (ip), vehicle: suspension in saline, higher T/C = larger tumour) was 0 of 10 on day 20.

With `Cc1cc(NCCCN(C)C)c2ccc3c(ccc4c(NCCCN(C)C)cc(C)nc43)c2n1` the survivor count (T/C endpoint: median tumor weight (est.), dose: 12.5 mg/kg/injection, schedule: Q07DX002 (ip), vehicle: saline, higher T/C = larger tumour) was 0 of 10 on day 20, the survivor count [10] was 0 of 10 on day 20 and the survivor count (T/C endpoint: median tumor weight (est.), dose: 50.0 mg/kg/injection, schedule: Q07DX002 (ip), vehicle: saline, higher T/C = larger tumour) was 0 of 10 on day 20. For the same compound, the survivor count [11] was 0 of 10 on day 20, the survivor count (T/C endpoint: median tumor weight (est.), dose: 200.0 mg/kg/injection, schedule: Q07DX002 (ip), vehicle: saline, higher T/C = larger tumour) was 0 of 10 on day 20 and the survivor count [12] was 0 of 10 on day 20.

For `CSc1ncnc2c1ncn2C1OC(CO)C(O)C1O` (stereo unspecified), the T/C (T/C endpoint: median tumor weight (est.), dose: 50.0 mg/kg/injection, schedule: Q07DX002 (ip), vehicle: saline + alcohol, higher T/C = larger tumour) was 130 % of control.

With `CN(C)c1ccc2c(N(C)C)cc(N(C)C)nc2c1` the T/C [9] was 147 % of control [9 of 10 alive on day 20] and the survivor count [1] was 0 of 10 on day 20.

For `CCCC(=O)Nc1ncnc2c1ncn2C1OC2COP(=O)(O)OC2C1OC(=O)CCC` (stereo unspecified), the survivor count [10] was 6 of 10 on day 20, the T/C [11] was 129 % of control and the survivor count [12] was 4 of 10 on day 20. The survivor count [13] was 5 of 10 on day 20.

In the case of `CCC1OCC(C(Cl)CCl)O1` (stereo unspecified), the T/C [1] is reported as 125 and 140 % of control [9 of 10 alive on day 20], the T/C [2] is reported as 138 % of control [9 of 10 alive on day 20] and the T/C [3] is reported as 126 [7 of 10 alive on day 20] and 131 % of control. The survivor count [4] was 0 of 10 on day 20.

`CCc1ccc(C2=C(O)C(=O)C(c3ccccc3)=C(O)C2=O)cc1` was tested, and the survivor count [1] was 0 of 10 on day 20, the survivor count [2] was 0 of 10 on day 20 and the survivor count [3] was 0 of 10 on day 20.

For `Cc1ccc(N)c(N)c1`, the survivor count [6] was 0 of 10 on day 20.

With `Cc1c(N)nc(C(CC(N)=O)NCC(N)C(N)=O)nc1C(=O)NC(C(=O)NC(C)C(O)C(C)C(=O)NC(C(=O)NCCc1nc(-c2nc(C(=O)NCCCNC(C)c3ccccc3)cs2)cs1)C(C)O)C(OC1OC(CO)C(O)C(O)C1OC1OC(CO)C(O)C(OC(N)=O)C1O)c1cnc[nH]1` (stereo unspecified) the survivor count (T/C endpoint: median tumor weight (est.), dose: 32.0 mg/kg/injection, schedule: Q07DX002 (ip), vehicle: saline, higher T/C = larger tumour) was 3 of 10 on day 20.

For `Cc1ncc([N+](=O)[O-])n1CCO`, the T/C (T/C endpoint: median tumor weight (est.), dose: 37.5 mg/kg/injection, schedule: Q07DX002 (ip), vehicle: Klucel (hydroxypropylcellulose) (HPC), higher T/C = larger tumour) was 137 % of control and the T/C (T/C endpoint: median tumor weight (est.), dose: 600.0 mg/kg/injection, schedule: Q04DX003 (ip), vehicle: Klucel (hydroxypropylcellulose) (HPC), higher T/C = larger tumour) was 138 % of control.

`O=C1N(CC2CO2)CCN1CC1CO1` (stereo unspecified) was tested, and the survivor count [13] was 1 of 10 on day 20.
